Measurements reported in PubChem BioAssay AID1259254 (NCATS, 2017)
Here is a random part of about 59,000 reagents. About 1,550 of all reagents (2.6%) were called active. 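G2 share is only a proxy for re-replication; each gene was hit by three separate siRNAs, and active genes were retested.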 Raw values vary from plate to plate and are shown uncorrected. Entries without a mark were called inactive. Reagents against one gene are numbered here. No sequences are given here. The record does not give: the amount of reagent.

Screen: 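Gene knock-downs that lead to re-replication, shown by excess G2 DNA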 (primary screen)
Cells: human HCT116 colorectal cancer cells
Knock-down reagent: single siRNA against human genes
Time to read-out: 3 days
Read-out: 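Imaged Hoechst DNA stain sorts each cell into a cycle phase by DNA amount; per plate, G2 fraction set to 0% for non-targeting and 100% for GMNN siRNA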
Direction: G2 robust z-score and G2 cells, % of GMNN control: higher = more G2 cells, more excess DNA replication; raw share of cells in G2: higher = larger share of cells with G2 DNA content
Active means: 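Active siRNAs have a G2 robust z of 5 or more median absolute deviations over the median, which in these data means about 38% or higher of GMNN control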

no.	Gene	reagent no.	G2 robust z-score	G2 cells, % of GMNN control	raw share of cells in G2 (%)
1	CIDEC	1	-0.64	-1.54	3.67
2	CIDEC	2	-0.782	-2.53	3.45
3	CIDEC	3	-1.12	-4.9	3.62
4	PDPN	1	7.93 (active)	58.8	28
5	PDPN	2	-0.449	-0.191	4.06
6	PDPN	3	1.17	11.2	7.37
7	SLC25A35	1	0.866	9.06	7.59
8	SLC25A35	2	-0.572	-1.05	4.55
9	SLC25A35	3	0.568	6.96	8.91
10	USP6	1	0.122	3.82	6.89
11	USP6	2	-0.623	-1.42	4.41
12	USP6	3	0.109	3.73	5.3
13	CMAS	1	-0.573	-1.06	5.96
14	CMAS	2	-0.453	-0.216	4.36
15	CMAS	3	-0.762	-2.4	3.33
16	ABCF1	1	-0.314	0.759	4.27
17	ABCF1	2	3.16	25.2	14
18	ABCF1	3	0.312	5.16	6.48
19	SURF6	1	-0.685	-1.85	3.34
20	SURF6	2	-0.459	-0.261	4.46
21	SURF6	3	1.75	15.3	10.8
22	EEF1DP1	1	0.147	4.01	4.03
23	EEF1DP1	2	1.14	11	8.32
24	EEF1DP1	3	-0.83	-2.87	2.19
25	NANOG	1	-0.528	-0.744	5.12
26	NANOG	2	-0.581	-1.12	3.79
27	NANOG	3	-0.267	1.09	5.19
28	WASHC2EP	1	0.539	6.76	6.91
29	WASHC2EP	2	-0.563	-0.99	3.65
30	WASHC2EP	3	2.02	17.2	10.8

Reprinted from above, 4 entries:
no.	Gene	reagent no.	G2 robust z-score	G2 cells, % of GMNN control	raw share of cells in G2 (%)
27	NANOG	3	-0.267	1.09	5.19
28	WASHC2EP	1	0.539	6.76	6.91
29	WASHC2EP	2	-0.563	-0.99	3.65
30	WASHC2EP	3	2.02	17.2	10.8
